Here are results for 42 sequences from paper PMC7819943, “Rice protein-binding microarrays: a tool to detect cis-acting elements near promoter regions in rice”.

This is one part of the list.

In the experiment the target is T1, OsSMF1 (Oryza sativa, UniProt Q6ZLB0 1-436).
T1 sequence: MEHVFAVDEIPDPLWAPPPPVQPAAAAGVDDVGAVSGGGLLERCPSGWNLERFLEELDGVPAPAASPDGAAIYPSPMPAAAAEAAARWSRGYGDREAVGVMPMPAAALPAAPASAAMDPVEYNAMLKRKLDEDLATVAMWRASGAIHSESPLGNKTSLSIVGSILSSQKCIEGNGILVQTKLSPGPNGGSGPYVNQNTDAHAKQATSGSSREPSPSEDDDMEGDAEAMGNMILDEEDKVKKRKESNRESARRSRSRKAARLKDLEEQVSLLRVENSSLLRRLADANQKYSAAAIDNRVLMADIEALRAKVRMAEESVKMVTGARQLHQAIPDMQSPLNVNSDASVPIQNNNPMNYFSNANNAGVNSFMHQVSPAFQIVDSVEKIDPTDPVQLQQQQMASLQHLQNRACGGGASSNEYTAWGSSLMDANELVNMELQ
The experiment can be described thus: protein-binding microarray (RPBM); PBS, 2% BSA, 51.3 ng/ul salmon testes DNA, 50 uM zinc acetate, 200 nM TF, 25 C, 1 h; high values mean tight binding. Particulars: protein: recombinant; tags: N-terminal polyhistidine and DsRed monomer fusion (pET32a); chain copies: 2; label: CyDye5-dUTP incorporated in the synthesized complementary strand; 3' TTTTT single-stranded linker to array surface; dsDNA, one strand shown. The method in brief: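 The binding signal for each feature is its fluorescence intensity in arbitrary units. An Axon 4000B scanner was used to read a custom Agilent array that had been made double-stranded with Cy5-dUTP primer extension, blocked with 2% BSA, incubated at 25 °C for 1 h with 200 nM protein in PBS, 2% BSA, salmon testes DNA and 50 µM zinc acetate, and washed. The protein was an N-terminal polyhistidine–DsRed transcription factor fusion from E. coli BL21-CodonPlus, purified on Ni–NTA.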
Turning to “ATCATGCCACCTATCTCTCCATTGCCAGCACAACATCCATCGGAGTCACCTAGTGCAG”, the binding signal was 7220 fluorescence intensity (a.u.).

As for “TCGCGTCCCTCCGTCTCCGGCCAGCTAGTGGAGTGGAGTACGGAGTCACCTAGTGCAG”, the binding signal was 14700 fluorescence intensity (a.u.).

As to “CGGCAGGTCTCCCGATGCGTGCCACGTGTACGGCGGATGGCGGAGTCACCTAGTGCAG”, the binding signal was 12900 fluorescence intensity (a.u.).

As to “CAGCAACGGGATCAACGGTGACCAGATCTGAGCCGTGCTGCGGAGTCACCTAGTGCAG”, the binding signal is 3230 fluorescence intensity (a.u.).

Consider “TCCCACATGCTGAGTCAGCTCGTCAACCGGGTCAATGACGCGGAGTCACCTAGTGCAG”, for which the binding signal is 15800 fluorescence intensity (a.u.).

Consider “AATCCATAATTAGAGAATGTTTACTGTAGCATCACATAGGCGGAGTCACCTAGTGCAG”, for which the binding signal was 3290 fluorescence intensity (a.u.).

On to “CGCCGGCGCTCGAGGCGCTGCACATCCACGTGTCCGCGTCCGGAGTCACCTAGTGCAG”, for which the binding signal is 13800 fluorescence intensity (a.u.).

For “GGGTTCTCCTCCGAGGCGCCACACGTCATGCTTCTCCTCTCGGAGTCACCTAGTGCAG”, the binding signal is 5350 fluorescence intensity (a.u.).

Consider “AACGTTTGTTAGTACGGTGGTGACGTGGCGTGGGTCCAACCGGAGTCACCTAGTGCAG”, for which the binding signal is 22100 fluorescence intensity (a.u.).

In the case of “GGCGGTGCTGGTGGAGGCGGTGGTCTCGGAGGTGGAGCAGCGGAGTCACCTAGTGCAG”, the binding signal was 46000 fluorescence intensity (a.u.).

With “CACAAACTTTACAGTTTACACGCTACGCAAACGTACGCCCCGGAGTCACCTAGTGCAG”, the binding signal was 21400 fluorescence intensity (a.u.).

“GGTCTATAAATTCATGTACATTAGCACAACAACCACTACACGGAGTCACCTAGTGCAG”: the binding signal is 3630 fluorescence intensity (a.u.).

On to “TGGCCTAATGATTTAGTAGAGTTTGCACCCTGCAATCGGTCGGAGTCACCTAGTGCAG”, for which the binding signal is 31300 fluorescence intensity (a.u.).

“GTGTAAACGTCGTTGCCGCCCACTCGCCGGCACGTCGCCACGGAGTCACCTAGTGCAG”: the binding signal is 3330 fluorescence intensity (a.u.).

Take “TCCAGTCTCATCACTTTGCTCCAAAAGAATAAGTTAGTGGCGGAGTCACCTAGTGCAG”: the binding signal was 30500 fluorescence intensity (a.u.).

As for “CTCCGCGTTCCTCACTTGCTAACGGGAGAAACCAACGTGGCGGAGTCACCTAGTGCAG”, the binding signal was 4900 fluorescence intensity (a.u.).

For the sequence “CGCCGCCTCCTCGTTCTTCCCTAGCCGTCGTCACCGCCCGCGGAGTCACCTAGTGCAG”, the binding signal was 3370 fluorescence intensity (a.u.).

Regarding “GACGTAGGAAGTATGCTTATAGAATGCTATTGTACGGTACCGGAGTCACCTAGTGCAG”, the binding signal was 20800 fluorescence intensity (a.u.).

As to “ACTTATTAGTTGTACTCCTACGTACGTATGACTGTCGGAACGGAGTCACCTAGTGCAG”, the binding signal is 4130 fluorescence intensity (a.u.).

Consider “CACGATACCGCGCCGATCTATTTTATCCTGAAACACATTACGGAGTCACCTAGTGCAG”, for which the binding signal is 26100 fluorescence intensity (a.u.).

As for “CTTCTGTCGTGGGATTCCGTCGAATCCGGTGATTGTTACACGGAGTCACCTAGTGCAG”, the binding signal was 17300 fluorescence intensity (a.u.).

Consider “CACCTGTCTGCCAGAGTAGCCGACGTGGCACGAGTAATCTCGGAGTCACCTAGTGCAG”, for which the binding signal is 10200 fluorescence intensity (a.u.).

Turning to “GTTATGATGGGGATAACGAGTTTCAAACACGAAGCACCTGCGGAGTCACCTAGTGCAG”, the binding signal is 3340 fluorescence intensity (a.u.).

As for “AGTCGTTAAGAACATGTATATAAAAGATTTGCACACAAATCGGAGTCACCTAGTGCAG”, the binding signal was 25500 fluorescence intensity (a.u.).

Turning to “ACAGATATTTTCGCTTTTCAACCAGCGTTGACTCGTCGTTCGGAGTCACCTAGTGCAG”, the binding signal was 3190 fluorescence intensity (a.u.).

As for “CGCTGCGCAGACGTCCACTCATTCGTTTCCGGCGTGGCATCGGAGTCACCTAGTGCAG”, the binding signal is 6210 fluorescence intensity (a.u.).

As to “GCCGATGACGCGGCGCCAGCGCCACCGCCTGCACGCGGCCCGGAGTCACCTAGTGCAG”, the binding signal is 7430 fluorescence intensity (a.u.).

In the case of “TGGAGAATGCCAACTTTGCACATTAAACGCTTGCATGTTTCGGAGTCACCTAGTGCAG”, the binding signal is 3140 fluorescence intensity (a.u.).

Turning to “CTAGCCAAGAAGCATCGATCAGCTGAGTGAGCTGGCAAGCCGGAGTCACCTAGTGCAG”, the binding signal was 5940 fluorescence intensity (a.u.).

Take “AAAAGATAAGTCACGCATAAAGTATTCATCATGTTTTATCCGGAGTCACCTAGTGCAG”: the binding signal is 3600 fluorescence intensity (a.u.).

For “CAATTTGGTAGCCCTTGAGTCTTCCCTGTCGGCAAATTGACGGAGTCACCTAGTGCAG”, the binding signal is 30100 fluorescence intensity (a.u.).

As to “ACAAATCCAACACAAATTCCATCTCAGCATTTTCTCCAGTCGGAGTCACCTAGTGCAG”, the binding signal is 5250 fluorescence intensity (a.u.).

On to “CCTCTATTTTCCATCTCCAACTATGTCAGCAAAAGAAATCCGGAGTCACCTAGTGCAG”, for which the binding signal is 4190 fluorescence intensity (a.u.).

With “GAGGTCTGCGTATTTGACGAGTCACCGGAGGTCTTCTCCACGGAGTCACCTAGTGCAG”, the binding signal was 6190 fluorescence intensity (a.u.).

Consider “GGGCAATTTCGCATTGGTGCAGGTTCCACATCACGATGCCCGGAGTCACCTAGTGCAG”, for which the binding signal is 4200 fluorescence intensity (a.u.).

Regarding “GCACGCTGCATGCACGCATGCATGAAACTCTCATCTGACACGGAGTCACCTAGTGCAG”, the binding signal is 3780 fluorescence intensity (a.u.).

Consider “AGGATGCCCATTGTCATTGATATGGTATGGTGATGAAGAGCGGAGTCACCTAGTGCAG”, for which the binding signal is 4170 fluorescence intensity (a.u.).

Consider “GAGGGAGTACACGTGACATATCCACATTTTCATCATCCTTCGGAGTCACCTAGTGCAG”, for which the binding signal is 6720 fluorescence intensity (a.u.).

As to “CACGTCAACTGACGCTAAATGCTGTGTCACCGCGGATGGGCGGAGTCACCTAGTGCAG”, the binding signal is 5620 fluorescence intensity (a.u.).

With “GATGAGGCTTTCTCTTGCCACGCAGGACAGCATGTGTTTGCGGAGTCACCTAGTGCAG”, the binding signal is 7390 fluorescence intensity (a.u.).

Turning to “TTTTCAATGGCCAGTTGTCCTTAGTTGATATGTATGTAAACGGAGTCACCTAGTGCAG”, the binding signal was 6340 fluorescence intensity (a.u.).

On to “AGGCTCTAACCAGCGGTGCAATGCCGTGTCACCGAGCCTACGGAGTCACCTAGTGCAG”, for which the binding signal is 6540 fluorescence intensity (a.u.).
